Data on 57 compounds can be found in the supplement of paper PMC3682954.

The experiment deals with RAW 264.7. Description: cell viability (MTT) relative to vehicle control; higher = more viable cells. The conditions noted are these: stimulus: HMGB1 5 ug/ml, 18 h.
Setting [1] is: compound concentration: 1 ug/ml.

Counter-ions that a name gives are not always drawn. ± gives the standard deviation of the averaged measurements. The list shows a part of the results. Single values are uncertain, as repeats are few or missing.

Usually cell viability stands for a read-out of living cells in per cent, often relative to untreated cells. Regarding `Oc1c(Cl)cc(Cl)c2cccnc12`, for the setting “compound concentration: 3 uM”, the cell viability was 98.2%.

In the case of `Oc1c(Cl)cc(Cl)c2cccnc12` [Chloroxine], under “compound concentration: 3 uM”, the cell viability worked out at 104%.

`O=C1CC[C@@H](C(=O)N2CSC[C@H]2C(=O)O)N1`: the cell viability (compound concentration: 3 uM) is 101%.

Consider `COc1ccccc1N1CCN(CCCNc2c(C)c(=O)n(C)c(=O)n2C)CC1` [Urapidil, 5-Methyl-], for which the cell viability (compound concentration: 3 uM) is 122%.

In the case of `NC[C@@H]1O[C@H](O[C@H]2[C@@H](O)[C@H](O[C@@H]3[C@@H](O)[C@H](N)C[C@H](N)[C@H]3O[C@H]3O[C@H](CO)[C@@H](O)C[C@H]3N)O[C@@H]2CO)[C@H](N)[C@@H](O)[C@@H]1O[C@H]1O[C@H](CO)[C@@H](O)[C@H](O)[C@@H]1O` [Lividomycin A sulfate salt], under setting [1], the cell viability is 94.9%.

On to `CN(C)CCC(c1ccc(Br)cc1)c1ccccn1` (stereo not drawn), for which the cell viability (compound concentration: 3 uM) worked out at 108%.

Consider `CN(C)CCC(c1ccc(Br)cc1)c1ccccn1` (stereo not drawn) [Brompheniramine maleate], for which, for the setting “compound concentration: 3 uM”, the cell viability came to 131%.

In the case of `C[C@]12CCC(=O)C=C1CC[C@@H]1[C@@H]2CC[C@@]2(C)[C@H]1CC[C@]2(O)C(=O)CO` [Cortexolone], the cell viability (compound concentration: 3 uM) worked out at 105%.

Take `COC(=O)C1=C(C)NC(C)=C(C(=O)OC(C)(C)CN(C)CCC(c2ccccc2)c2ccccc2)C1c1cccc([N+](=O)[O-])c1` (stereo not drawn) [Lercanidipine hydrochloride hemihydrate]: the cell viability (compound concentration: 3 uM) worked out at 104%.

For the compound `O=C(O)/C=C/C(O)c1ccc(Cl)cc1` (stereo not drawn), where the note is “compound concentration: 3 uM”, the cell viability came out at 113%.

Take `CC(C)NCC(O)COc1ccc(CC(N)=O)cc1` (stereo not drawn) [Atenolol]: the cell viability (compound concentration: 3 uM) amounted to 106%.

`CC(C)NCC(O)COc1ccc(CC(N)=O)cc1` (stereo not drawn): the cell viability (compound concentration: 3 uM) was 113%.

As for `NC(Cn1ccc(=O)c(O)c1)C(=O)O` (stereo not drawn), the cell viability (compound concentration: 3 uM) came out at 96.2%.

Turning to `CNCCc1cnc(CCC(c2ccccc2)c2ccccc2)[nH]1` [N-Methylhistaprodifen dioxalate salt], the cell viability (compound concentration: 3 uM) was 100%.

With `COC(=O)Nc1nc2cc(Sc3ccccc3)ccc2[nH]1`, where the note is “compound concentration: 3 uM”, the cell viability came to 62.1%.

For `COC(=O)Nc1nc2cc(Sc3ccccc3)ccc2[nH]1` [Fenbendazole], the cell viability (compound concentration: 3 uM) turned out to be 55 ± 10%.

`COc1ccccc1-c1cc(=O)c2c(OC)cccc2o1` [2',5-Dimethoxyflavone]: the cell viability under setting [1] worked out at 98.7%.

Take `CC(=O)N(CC(O)CO)c1c(I)c(C(=O)NCC(O)CO)c(I)c(C(=O)NCC(O)CO)c1I` (stereo not drawn) [Iohexol]: the cell viability (compound concentration: 3 uM) turned out to be 87.1%.

With `CN(CCCCCCCCCCN(C)C(=O)Oc1cccc([N+](C)(C)C)c1)C(=O)Oc1cccc([N+](C)(C)C)c1` [Demecarium bromide], where the note is “compound concentration: 3 uM”, the cell viability worked out at 112%.

For the compound `CN1CCN(CC(=O)N2c3ccccc3C(=O)Nc3cccnc32)CC1` [Pirenzepine], under “compound concentration: 3 uM”, the cell viability worked out at 103%.

With `CN1CCN(CC(=O)N2c3ccccc3C(=O)Nc3cccnc32)CC1`, under “compound concentration: 3 uM”, the cell viability was 113%.

Consider `CN1CCN(CC(=O)N2c3ccccc3C(=O)Nc3cccnc32)CC1` [Pirenzepine dihydrochloride], for which, under “compound concentration: 3 uM”, the cell viability was 99.2 ± 11%.

For `C=C1C(=O)O[C@@H]2C[C@@]3(C)CCCC(=C)[C@@H]3C[C@H]12` [Isoalantolactone], the cell viability under setting [1] was determined as 101%.

`O=C1c2c(O)cc(O)cc2O[C@H](c2ccc(O)c(O)c2)[C@H]1O` (racemic) [(±)-Taxifolin]: for the setting “compound concentration: 3 uM”, the cell viability was found to be 110%.

Consider `Cn1c(=O)c2c(ncn2CC2OCCO2)n(C)c1=O` [Doxofylline], for which the cell viability (compound concentration: 3 uM) was 99.9 ± 1.5%.

For the compound `CC1(C)O[C@@H]2[C@@H](CO[C@@]3(COS(N)(=O)=O)OC(C)(C)O[C@@H]23)O1` [Topiramate], the cell viability (compound concentration: 3 uM) was 96.3%.

As to `CC1(C)O[C@@H]2[C@@H](CO[C@@]3(COS(N)(=O)=O)OC(C)(C)O[C@@H]23)O1`, for the setting “compound concentration: 3 uM”, the cell viability amounted to 101 ± 9.4%.

On to `COc1cc2ccc(=O)oc2cc1O` [Scopoletin], for which, under setting [1], the cell viability is 87.9%.

For the compound `CC[N+](CC)(CC(=O)Nc1c(C)cccc1C)Cc1ccccc1`, the cell viability (compound concentration: 3 uM) was determined as 96.6%.

In the case of `CC[N+](CC)(CC(=O)Nc1c(C)cccc1C)Cc1ccccc1` [Denatonium benzoate], under “compound concentration: 3 uM”, the cell viability came to 70.7%.

`C=N[C@@H](C(=O)N[C@@H]1C(=O)N2[C@@H]1SC(C)(C)[C@@H]2C(=O)O)c1ccccc1` [Metampicillin sodium salt]: the cell viability (compound concentration: 3 uM) was 120%.

Turning to `COc1cc(NS(=O)(=O)c2ccc(N)cc2)nc(OC)n1`, the cell viability (compound concentration: 3 uM) was 113%.

With `COc1cc(NS(=O)(=O)c2ccc(N)cc2)nc(OC)n1` [Sulfadimethoxine], the cell viability (compound concentration: 3 uM) stood at 101 ± 6%.

As to `O=C1N=C(O)NC1(c1ccccc1)c1ccccc1`, for the setting “compound concentration: 3 uM”, the cell viability came out at 108%.

With `O=C1N=C(O)NC1(c1ccccc1)c1ccccc1` [Phenytoin sodium], the cell viability (compound concentration: 3 uM) came to 107%.

As for `O=C1Nc2ccc(I)cc2/C1=C/c1cc(Br)c(O)c(Br)c1`, the cell viability (compound concentration: 3 uM) was 106%.

On to `COC(=O)C1OC(Oc2cc(O)c3c(c2)O[C@H](c2ccccc2O)CC3=O)C(O)C(O)C1O` (stereo partly drawn), for which the cell viability under setting [1] amounted to 105%.

Regarding `O=C(O)CCCC[C@@H]1CCSS1`, the cell viability (compound concentration: 3 uM) worked out at 113%.

Take `Cc1cccc(Nc2ccncc2S(=O)(=O)NC(=O)NC(C)C)c1`: the cell viability (compound concentration: 3 uM) turned out to be 92.1%.

With `Cc1cccc(Nc2ccncc2S(=O)(=O)NC(=O)NC(C)C)c1` [Torsemide], the cell viability (compound concentration: 3 uM) is 92.5%.

Take `COc1cc2c(cc1OC)-c1c/c(=N\c3c(C)cc(C)cc3C)n(C)c(=O)n1CC2` [Trequinsin HCl]: the cell viability (compound concentration: 3 uM) is 105%.

Consider `COc1cc2c(cc1OC)-c1c/c(=N\c3c(C)cc(C)cc3C)n(C)c(=O)n1CC2` [Trequinsin hydrochloride], for which, where the note is “compound concentration: 3 uM”, the cell viability amounted to 109%.

Consider `O=C(C=Cc1ccc(O)cc1)c1ccccc1O` [2',4-Dihydroxychalcone], for which the cell viability under setting [1] was 104%.

For `NC1=NCC2c3ccccc3Cc3ccccc3N12` (stereo not drawn) [Epinastine hydrochloride], the cell viability (compound concentration: 3 uM) is 108%.

In the case of `NC(=O)N1c2ccccc2CC(=O)c2ccccc21` [Oxcarbazepine], the cell viability (compound concentration: 3 uM) stood at 102 ± 15%.

`NC(=O)N1c2ccccc2CC(=O)c2ccccc21`: under “compound concentration: 3 uM”, the cell viability amounted to 104%.

Regarding `NC(=O)N1c2ccccc2CC(=O)c2ccccc21` [Trileptal], the cell viability (compound concentration: 3 uM) amounted to 97.8%.

Consider `CC(=O)OCC(=O)[C@@]1(O)[C@H](OC(C)=O)C[C@H]2[C@@H]3CCC4=CC(=O)C=C[C@]4(C)[C@@]3(F)[C@@H](O)C[C@@]21C`, for which the cell viability (compound concentration: 3 uM) worked out at 115%.

Consider `CC(C)Cn1cnc2c(N)nc3ccccc3c21` [Imiquimod], for which, for the setting “compound concentration: 3 uM”, the cell viability amounted to 95.9 ± 17%.

As to `CC(C)NC(=N)NC(=N)Nc1ccc(Cl)cc1`, the cell viability (compound concentration: 3 uM) worked out at 108%.

For the compound `CC(C)NC(=N)NC(=N)Nc1ccc(Cl)cc1` [Proguanil hydrochloride], where the note is “compound concentration: 3 uM”, the cell viability amounted to 82.5%.

As for `CN(C)CC[C@@H](c1ccc(Br)cc1)c1ccccn1`, under “compound concentration: 3 uM”, the cell viability is 100%.

With `O=C1OC(=O)[C@H]2[C@@H]1[C@@H]1CC[C@H]2O1` [Norcantharidin], the cell viability was 88.5% under setting [1] and 108% (compound concentration: 3 uM).

As to `O=C1OC(=O)[C@H]2[C@@H]1[C@@H]1CC[C@H]2O1`, the cell viability (compound concentration: 3 uM) was determined as 129%.

In the case of `O=c1[nH]c(=O)n([C@H]2C[C@H](O)[C@@H](CO)O2)cc1C(F)(F)F` [Trifluorothymidine], the cell viability under setting [1] is 90.7%.

For `O=c1[nH]c(=O)n([C@H]2C[C@H](O)[C@@H](CO)O2)cc1C(F)(F)F` [Trifluridine], for the setting “compound concentration: 3 uM”, the cell viability came out at 95.2%.

For `O=c1[nH]c(=O)n([C@H]2C[C@H](O)[C@@H](CO)O2)cc1C(F)(F)F`, the cell viability (compound concentration: 3 uM) was 103%.
